Results on one substance are retold here after patent US20220312749A1 (BIOCYTOGEN PHARMACEUTICALS BEIJING, published 2022).

Chains of the proteins cited; added tags and fusions are not shown. Residues count along the entry.
UniProt P60568, residues 21-153: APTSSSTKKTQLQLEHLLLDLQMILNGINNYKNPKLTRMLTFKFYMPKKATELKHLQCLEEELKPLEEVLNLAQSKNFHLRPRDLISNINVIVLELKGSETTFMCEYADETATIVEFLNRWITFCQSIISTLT

No constants are given. Whether binding was seen depends on the method and setting. Some entries that bind do so weakly or less than the wild type.

This assay concerns the target T1, mouse IL2RA protein (NP_032393.3) (mouse) (UniProt P01590).
T1 sequence: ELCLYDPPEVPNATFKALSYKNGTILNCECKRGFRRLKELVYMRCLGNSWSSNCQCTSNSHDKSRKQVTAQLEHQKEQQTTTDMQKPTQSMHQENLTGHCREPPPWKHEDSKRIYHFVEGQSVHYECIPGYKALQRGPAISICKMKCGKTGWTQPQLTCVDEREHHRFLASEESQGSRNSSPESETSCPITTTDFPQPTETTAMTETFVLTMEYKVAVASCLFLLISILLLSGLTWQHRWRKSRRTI
Nature of the assay: inferred by the filing from p-STAT5 flow cytometry on wild-type mouse splenocytes.

Turning to “Human IL2 (hIL2) (from UniProt P60568 21-153) (ligand)”, the binding entry is on record as “binds”.
